In article PMC11831766 one finds binding data, which are given here for two substances.

Amino acid sequences for entries named in this document (tags omitted).
UniProt Q9BVA1: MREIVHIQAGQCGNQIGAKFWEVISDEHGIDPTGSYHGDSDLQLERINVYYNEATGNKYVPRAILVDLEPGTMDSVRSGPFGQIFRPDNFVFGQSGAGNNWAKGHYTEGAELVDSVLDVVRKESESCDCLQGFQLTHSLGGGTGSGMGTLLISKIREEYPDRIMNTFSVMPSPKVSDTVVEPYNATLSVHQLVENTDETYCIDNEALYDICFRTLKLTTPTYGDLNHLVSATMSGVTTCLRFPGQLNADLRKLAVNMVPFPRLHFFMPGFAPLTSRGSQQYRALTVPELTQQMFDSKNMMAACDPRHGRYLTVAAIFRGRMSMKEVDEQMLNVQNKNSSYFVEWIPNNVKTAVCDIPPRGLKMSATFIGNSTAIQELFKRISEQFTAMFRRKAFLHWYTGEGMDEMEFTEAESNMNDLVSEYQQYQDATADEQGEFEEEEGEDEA
UniProt P68104: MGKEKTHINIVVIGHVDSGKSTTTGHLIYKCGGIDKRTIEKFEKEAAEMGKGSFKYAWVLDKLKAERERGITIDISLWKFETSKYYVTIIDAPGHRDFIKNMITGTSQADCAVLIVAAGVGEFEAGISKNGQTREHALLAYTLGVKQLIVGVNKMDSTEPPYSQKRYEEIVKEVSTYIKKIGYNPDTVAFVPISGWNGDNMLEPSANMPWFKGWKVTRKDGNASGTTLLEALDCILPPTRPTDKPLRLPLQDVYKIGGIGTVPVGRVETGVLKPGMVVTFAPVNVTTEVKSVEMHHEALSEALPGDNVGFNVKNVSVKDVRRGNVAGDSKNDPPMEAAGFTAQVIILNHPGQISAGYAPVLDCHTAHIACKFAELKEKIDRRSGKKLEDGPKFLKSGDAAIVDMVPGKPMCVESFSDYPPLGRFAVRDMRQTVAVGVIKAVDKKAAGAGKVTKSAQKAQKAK
UniProt P35579: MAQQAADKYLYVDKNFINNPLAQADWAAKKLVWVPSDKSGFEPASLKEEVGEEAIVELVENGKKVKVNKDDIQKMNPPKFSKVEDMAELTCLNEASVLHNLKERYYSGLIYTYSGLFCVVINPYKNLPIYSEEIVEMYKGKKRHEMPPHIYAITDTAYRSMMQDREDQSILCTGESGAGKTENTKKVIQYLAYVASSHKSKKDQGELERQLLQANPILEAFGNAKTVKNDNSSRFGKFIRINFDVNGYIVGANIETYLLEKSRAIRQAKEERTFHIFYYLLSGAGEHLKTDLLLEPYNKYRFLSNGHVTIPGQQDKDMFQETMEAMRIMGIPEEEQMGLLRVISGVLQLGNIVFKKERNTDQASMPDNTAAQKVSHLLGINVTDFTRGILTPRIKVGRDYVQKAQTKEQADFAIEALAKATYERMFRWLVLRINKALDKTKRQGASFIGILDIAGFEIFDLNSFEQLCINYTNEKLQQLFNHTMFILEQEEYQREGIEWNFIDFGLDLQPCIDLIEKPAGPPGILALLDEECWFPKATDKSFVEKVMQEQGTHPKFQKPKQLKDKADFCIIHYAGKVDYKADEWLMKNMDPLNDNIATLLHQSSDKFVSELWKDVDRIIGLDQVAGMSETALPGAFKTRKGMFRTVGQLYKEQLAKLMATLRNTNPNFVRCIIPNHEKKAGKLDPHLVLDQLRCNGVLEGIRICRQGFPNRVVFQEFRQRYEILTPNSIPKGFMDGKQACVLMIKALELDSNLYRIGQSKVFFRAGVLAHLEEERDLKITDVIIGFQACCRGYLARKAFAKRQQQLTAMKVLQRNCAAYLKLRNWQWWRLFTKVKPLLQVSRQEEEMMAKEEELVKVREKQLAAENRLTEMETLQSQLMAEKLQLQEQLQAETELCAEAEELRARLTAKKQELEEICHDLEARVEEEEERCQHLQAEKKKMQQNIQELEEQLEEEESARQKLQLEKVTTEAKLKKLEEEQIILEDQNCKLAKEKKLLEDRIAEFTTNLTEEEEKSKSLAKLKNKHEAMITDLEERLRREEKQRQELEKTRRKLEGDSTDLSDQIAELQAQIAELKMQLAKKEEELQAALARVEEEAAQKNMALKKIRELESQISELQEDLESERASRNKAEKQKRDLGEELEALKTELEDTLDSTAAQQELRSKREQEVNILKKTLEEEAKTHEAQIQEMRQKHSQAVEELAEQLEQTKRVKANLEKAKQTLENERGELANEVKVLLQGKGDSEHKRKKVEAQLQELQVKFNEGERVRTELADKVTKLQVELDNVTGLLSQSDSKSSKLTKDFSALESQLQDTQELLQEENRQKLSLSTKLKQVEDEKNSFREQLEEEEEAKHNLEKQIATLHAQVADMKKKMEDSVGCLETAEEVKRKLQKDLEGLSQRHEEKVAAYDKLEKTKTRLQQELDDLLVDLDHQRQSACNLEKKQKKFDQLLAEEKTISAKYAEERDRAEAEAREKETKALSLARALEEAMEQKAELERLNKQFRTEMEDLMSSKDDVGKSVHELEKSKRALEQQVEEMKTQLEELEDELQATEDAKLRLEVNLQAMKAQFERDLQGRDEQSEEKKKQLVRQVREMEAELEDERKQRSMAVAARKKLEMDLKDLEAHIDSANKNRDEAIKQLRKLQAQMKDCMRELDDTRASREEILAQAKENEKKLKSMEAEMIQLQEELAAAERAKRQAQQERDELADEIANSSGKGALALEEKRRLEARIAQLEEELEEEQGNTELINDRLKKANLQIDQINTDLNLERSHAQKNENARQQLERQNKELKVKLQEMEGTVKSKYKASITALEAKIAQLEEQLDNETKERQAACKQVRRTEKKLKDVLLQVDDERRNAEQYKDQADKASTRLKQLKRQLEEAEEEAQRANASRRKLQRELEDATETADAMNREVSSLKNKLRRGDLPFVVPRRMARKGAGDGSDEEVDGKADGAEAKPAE

No constants are given. Whether binding was seen depends on the method and setting. In cells and extracts the contact can be indirect. These calls come from enrichment with a bait or labelling near it, and not all partners need be listed.

For this test, the target named is flag-TUBB2B (Tubulin beta 2B class IIb, Flag-tagged) (UniProt Q9BVA1). The experiment in a line: affinity purification with mass spectrometry; IP from lysate (EBC buffer) of flag-TUBB2B overexpressing TNBC cells, Protein G Dynabeads, SDS-PAGE, differential bands excised, LC-MS/MS.

“eukaryotic translation elongation factor 1 alpha 1 (eEF1A1) (from UniProt P68104 1-462)”: the binding entry was “binds”.
For “myosin heavy chain 9 (MYH9) (from UniProt P35579 1-1960)”, the binding result is given as “binds”.
